Consider 59 molecules from PubChem BioAssay AID488835 (Broad Institute, 2010).

Amino acid sequences for entries named in this document (tags omitted). Residues count along the entry.
UniProt Q9H3R0, 1-420 limits assumed: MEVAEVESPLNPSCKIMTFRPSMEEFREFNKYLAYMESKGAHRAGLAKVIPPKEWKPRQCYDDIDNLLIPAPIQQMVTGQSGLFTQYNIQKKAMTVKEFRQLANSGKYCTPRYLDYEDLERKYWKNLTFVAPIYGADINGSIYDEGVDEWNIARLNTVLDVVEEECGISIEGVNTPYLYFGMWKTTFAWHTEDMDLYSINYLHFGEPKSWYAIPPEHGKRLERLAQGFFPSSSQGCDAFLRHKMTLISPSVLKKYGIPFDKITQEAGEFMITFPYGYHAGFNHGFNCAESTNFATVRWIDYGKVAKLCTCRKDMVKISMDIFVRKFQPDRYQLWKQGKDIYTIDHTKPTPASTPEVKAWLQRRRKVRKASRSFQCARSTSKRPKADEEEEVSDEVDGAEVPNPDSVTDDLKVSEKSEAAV

Out of some 1,400 compounds screened, about 140 (10%) were called active.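 The calls were made as follows: active = Half-maximal inhibitory dose from the fit at or below ten times the top valid tested dose; inconclusive = Invalid fit, or flat curve showing 30 to 70% inhibition; inactive = the rest.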 The entries are a selection whose mix differs from that of the whole data set. Entries with a potency or affinity are not part of this list.

For this test, the target named is Lysine-specific demethylase 4C (Homo sapiens) (UniProt Q9H3R0). In words: inhibition of JMJD2C H3K9me3 demethylation – biochemical, DELFIA europium, cherry-picked samples, dose response (AID 488835).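 Also: signal is the H3K9me2 demethylation product detected by a dimethyl-specific antibody.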 To be noted: GST-JMJD2C(1-420); at 6 µM (top of the series) unless noted.
`COc1ccc(NC(=O)N(C)C[C@H]2Oc3c(NC(=O)C4CC4)cccc3C(=O)N([C@H](C)CO)C[C@@H]2C)cc1`: the activity change, negative = inhibition was inactive: 4.36%.
The result for `O=C1NCCC/C1=N/Nc1ccc(F)cc1` reads inactive: -3.19%.
Regarding `COc1ccc(CCNC(=O)CSCc2n[nH]c(=O)[nH]2)cc1OC`, the activity change, negative = inhibition was inactive: 5.01%.
The result for `O=C(CSc1nnc(CNC(=O)c2c(F)cccc2Cl)o1)Nc1ccc2c(c1)OCCO2` reads inactive: -1.08%.
For `CCn1c(CNC(=O)Cc2ccc(OC)cc2)nnc1SCC(=O)NC1CCCCC1`, the activity change, negative = inhibition was inactive: 0.869%.
For the molecule `CCN(CC)C(=O)C1c2ccccc2Oc2ccccc21`, the activity change, negative = inhibition is inactive: -11.4%.
For `CC1CCN(C(=S)NC(=O)c2cccc([N+](=O)[O-])c2)CC1`, the activity change, negative = inhibition was inactive: 1.7% [at 1.6 µM].
The result for `N/C(=N\S(=O)(=O)c1cc(C(F)(F)F)cc(C(F)(F)F)c1)c1ccccc1` reads inactive: 0.83%.
For `Cc1ccc(C(c2sc3nc(C)nn3c2O)N2CCN(c3ccccc3F)CC2)cc1` (centres undefined) the value was inactive: 4.26%; for `CC(C)(C)c1ccc(C(=O)OCc2c(-c3ccccc3)ncc3ccccc23)cc1`, inactive: 2.8%; for `O=c1ccc2cc3c([nH]c4ccc(Br)cc43)oc-2c1O`, inactive: -20%.
For `CCOc1ccc(C(=S)NC2CCCCC2)cc1` the value was inactive: -1.16%; for `Cc1ccc(Cl)cc1N1CCN(C(=O)c2ccc(NS(=O)(=O)c3c(C)noc3C)cc2)CC1`, inactive: -1.76%; for `NC(=O)C1CCN(C(=O)CCSc2ccccc2)CC1`, inactive: 3.4%.
For `COc1ccc(CCNC(=O)c2ccccc2Cl)cc1OC`, the activity change, negative = inhibition was inactive: 3.52%.
The result for `COc1ccc2cc3cc(C(=O)N4CCN(C5CCCCC5)CC4)oc3nc2c1` reads inactive: 0.294%; that for `CC(=O)C[C@@H](O)CC(=O)[C@H]1OC(=O)CCCCCc2ccccc21`, inactive: 15.1%.
For `COc1ccc(NC(=S)NNC(=O)c2ccc(S(=O)(=O)N3CCOCC3)cc2)cc1` the value was inactive: 2.81%.
For `Cc1cccc(NC(=S)N2CCN(Cc3ccc4c(c3)OCO4)CC2)c1C` the value was inactive: 1.67%; for `COc1ccc(/C(O)=C/Sc2nnc(Cc3ccccc3)o2)cc1`, inactive: -5.28%.
Consider `Cc1ccc(S(=O)(=O)NCCC(=O)N2CCN(c3cccc(Cl)c3)CC2)cc1C`, for which the activity change, negative = inhibition was inactive: 2.45%.
The result for `CN(C)c1ccc(NC(=S)c2ccccn2)cc1` reads inactive: -5.84%; that for `CCNc1ccc(S(=O)(=O)N(C)C)cc1NCC(=O)Nc1c(F)cccc1F`, inactive: 1.7%.
The result for `CCOC(=O)C(C)Oc1ccsc1C(=O)OC` (centres undefined) reads inactive: 3.95%.
For `CC(=O)c1cccc(NC(=S)NC(=O)CC(C)C)c1` the value was inactive: 1.71%; for `COc1ccc(C(=O)O/N=C(\C)c2cnccn2)cc1`, inactive: -0.844%; for `Cc1ccc(S(=O)(=O)N2[C@@H](c3ccc(C#N)cc3)C(C(=O)O)=C[C@H]2C(C)(C)C)cc1`, inactive: 5.5%.
For the molecule `CCc1ccc(C(=O)CSc2nc3ccccc3c(=O)[nH]2)cc1`, the activity change, negative = inhibition is inactive: 8.14%.
For `CCOC(=O)c1c(NC(=O)c2cc(-c3ccc(O)cc3)on2)sc(C(C)=O)c1C` the value was inactive: -8.22%; for `Oc1ccc(-c2nc3ncccn3c2Nc2ccc3c(c2)OCO3)cc1`, inactive: 2.35%.
For `CN(C)c1ccc(N=Cc2nc(-c3ccccc3)oc2OC(=O)c2ccccc2)cc1` the value was inactive: 10.3%; for `COc1ccc(N/C=C2/CCCCC2=O)cc1`, inactive: -1.16%.
For `O=C(Cn1nc(-c2ccc(Cl)cc2)ccc1=O)NCC1COCCO1` (centres undefined) the value was inactive: 10.9%.
With `Cn1c(=O)c(-c2ccccc2)nn2c3ccccc3nc12`, the activity change, negative = inhibition is inactive: 7.46%.
For `CC(C)NC(=O)Nc1ccc2c(c1)C(=O)N([C@H](C)CO)C[C@@H](C)[C@@H](CN(C)C(=O)NC1CCCCC1)O2` the value was inactive: 1.53%.
As for `CCOC(=O)Nc1cc(C)c(Cl)cc1OC`, the activity change, negative = inhibition was inactive: 3.42%.
For `NC(=O)C1CCN(c2nc(-c3ccccc3Br)cs2)CC1`, the activity change, negative = inhibition was inactive: -3.63%.
The result for `Cc1nn(-c2cccc(C(=O)O)c2)c(C)c1Oc1ccccc1O` reads inactive: 4.86%; that for `COC(=O)c1cccc(C#CC(NP(=O)(c2ccccc2)c2ccccc2)c2ccccc2)c1` (centres undefined), inactive: 7.2%; that for `O=C(N/N=C/c1ccc(O)cc1)c1cncc(Br)c1`, inactive: 4.32%.
Regarding `Cc1nc2sc(C(c3cccc(F)c3)N3CCOCC3)c(O)n2n1` (centres undefined), the activity change, negative = inhibition was inactive: 17.7%.
The result for `O=C(NNC(=O)c1cccs1)c1ccc([N+](=O)[O-])cc1` reads inactive: -4.01%; that for `O=C(c1cccs1)N1CCN(S(=O)(=O)c2ccc(F)cc2)CC1`, inactive: 10.2%; that for `CCNC(=S)NNC(=O)c1csc2c1CCC(C)C2` (centres undefined), inactive: -2.11%.
Take `CCC(C(=O)NCCCc1ccccc1)c1ccccc1` (centres undefined): the activity change, negative = inhibition was inactive: -4.57%.
On to `CC(=O)Oc1ccc(NC(=O)Cc2ccccc2)c(C(=O)O)c1`, for which the activity change, negative = inhibition was inactive: -0.875%.
On to `CCOC(=O)Cn1c(=O)cnc2ccccc21`, for which the activity change, negative = inhibition is inactive: 5.57%.
The result for `Cc1cccc(NC(=O)CCN2CCN(C/C=C/c3ccccc3)CC2)c1` reads inactive: -3.63%; that for `CCc1nn2c(N3CCOCC3)cc(C)nc2c1-c1ccc(F)cc1`, inactive: 1.33%.
As for `O=C(Cn1cnc2ccccc2c1=O)NCc1cccs1`, the activity change, negative = inhibition was inactive: -6.18%.
The result for `CC(C)(C)NC(=O)C1CCN(C(=O)c2ccc(Br)cc2)CC1` reads inactive: 3.64%; that for `CCC(CO)Oc1cc(NC(=O)c2cccc(OC)c2)c2ncn(C(C)C)c2c1` (centres undefined), inactive: -5.66%; that for `CCN(CC)CCSc1nc2ccccc2c(=S)n1-c1ccccc1`, inactive: -2.56%.
For `C#CCOCCOCCOCCNc1nc(N2CCN(C(=O)C([C@@H](C)O)n3cc([C@@H](N)CCCCN)nn3)CC2)nc(N2CCN(C(=O)[C@H](CC(N)=O)n3cc([C@@H](N)C(C)C)nn3)CC2)n1` (some centres undefined) the value was inactive: 2.9%; for `O=C(O)c1ccc2c(c1)C(=O)N(CCC1=CCCCC1)C2=O`, inactive: 8.21%; for `CN1CCN(c2nc3ccccn3c(=O)c2/C=C(\C#N)S(=O)(=O)c2ccc(Cl)cc2)CC1`, inactive: 5.1%.
Consider `CC1CCN(S(=O)(=O)c2ccc3[nH]c(=O)[nH]c3c2)CC1`, for which the activity change, negative = inhibition is inactive: -1.92%.
For `CC1=NN(C(N)=S)C(=O)C1N=Nc1c(C)cc(C)cc1C` (centres undefined) the value was inactive: 1.58%; for `C=CCNC(=S)Nc1ccc(N2CCOCC2)c(S(=O)(=O)Nc2ccccc2Cl)c1`, inactive: 3.98%.
